Results taken from article PMC12382147.
Results are given in words; binding and its absence hold for the method and conditions named. Binding seen in cells or lysates may run through a third protein. Here binding means that the protein was enriched with, or labelled near, the bait; the list need not be complete. Where a sequence is shown, tags or fusion partners need not be part of it.

Chains of the proteins cited; added tags and fusions are not shown.
UniProt Q13263: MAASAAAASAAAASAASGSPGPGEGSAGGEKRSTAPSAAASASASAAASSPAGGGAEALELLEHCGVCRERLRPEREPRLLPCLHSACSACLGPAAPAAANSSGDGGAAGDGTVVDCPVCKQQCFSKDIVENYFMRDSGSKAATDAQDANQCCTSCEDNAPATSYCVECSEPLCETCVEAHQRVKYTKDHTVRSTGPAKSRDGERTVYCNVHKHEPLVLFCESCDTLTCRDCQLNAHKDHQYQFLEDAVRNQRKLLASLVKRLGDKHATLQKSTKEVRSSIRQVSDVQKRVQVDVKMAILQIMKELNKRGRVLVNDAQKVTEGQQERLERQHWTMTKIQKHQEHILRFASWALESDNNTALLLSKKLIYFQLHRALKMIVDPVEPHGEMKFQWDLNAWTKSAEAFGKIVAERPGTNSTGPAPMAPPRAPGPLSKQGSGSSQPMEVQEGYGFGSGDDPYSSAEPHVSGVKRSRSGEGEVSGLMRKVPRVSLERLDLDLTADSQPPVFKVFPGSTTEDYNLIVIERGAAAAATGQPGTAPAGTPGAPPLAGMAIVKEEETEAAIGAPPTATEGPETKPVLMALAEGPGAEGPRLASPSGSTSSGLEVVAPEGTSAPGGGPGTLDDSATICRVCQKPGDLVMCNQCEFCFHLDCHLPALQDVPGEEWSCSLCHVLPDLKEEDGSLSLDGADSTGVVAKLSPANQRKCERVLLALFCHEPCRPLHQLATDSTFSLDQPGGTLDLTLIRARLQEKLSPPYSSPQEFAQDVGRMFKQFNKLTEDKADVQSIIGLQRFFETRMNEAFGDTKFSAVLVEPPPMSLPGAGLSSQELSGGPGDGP
UniProt Q9UNE7: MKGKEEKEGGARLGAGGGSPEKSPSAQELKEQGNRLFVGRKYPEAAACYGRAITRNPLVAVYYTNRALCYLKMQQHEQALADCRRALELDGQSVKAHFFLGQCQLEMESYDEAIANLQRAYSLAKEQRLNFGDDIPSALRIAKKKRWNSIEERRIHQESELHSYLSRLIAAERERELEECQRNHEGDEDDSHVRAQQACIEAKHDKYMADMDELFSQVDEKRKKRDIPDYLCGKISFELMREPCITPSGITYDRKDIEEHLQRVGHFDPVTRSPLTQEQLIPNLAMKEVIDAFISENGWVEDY

T1: Flag-TPIT (UniProt O60806)
T1 sequence: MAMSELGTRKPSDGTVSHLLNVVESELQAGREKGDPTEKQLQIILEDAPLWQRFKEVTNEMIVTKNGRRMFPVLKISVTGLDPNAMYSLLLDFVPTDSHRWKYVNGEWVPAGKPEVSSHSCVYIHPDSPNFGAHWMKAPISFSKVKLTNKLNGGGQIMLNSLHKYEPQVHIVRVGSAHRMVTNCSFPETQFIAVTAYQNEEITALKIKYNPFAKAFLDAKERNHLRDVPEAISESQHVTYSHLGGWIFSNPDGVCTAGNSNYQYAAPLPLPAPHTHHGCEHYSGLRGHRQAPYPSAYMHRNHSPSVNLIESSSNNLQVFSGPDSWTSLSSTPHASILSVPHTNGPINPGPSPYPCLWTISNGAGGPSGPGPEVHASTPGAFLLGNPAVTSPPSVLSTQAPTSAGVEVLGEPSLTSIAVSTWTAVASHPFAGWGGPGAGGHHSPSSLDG

B1: PLRG1, endogenous (protein, UniProt O43660 1-514)
chain: MVEEVQKHSVHTLVFRSLKRTHDMFVADNGKPVPLDEESHKRKMAIKLRNEYGPVLHMPTSKENLKEKGPQNATDSYVHKQYPANQGQEVEYFVAGTHPYPPGPGVALTADTKIQRMPSESAAQSLAVALPLQTKADANRTAPSGSEYRHPGASDRPQPTAMNSIVMETGNTKNSALMAKKAPTMPKPQWHPPWKLYRVISGHLGWVRCIAVEPGNQWFVTGSADRTIKIWDLASGKLKLSLTGHISTVRGVIVSTRSPYLFSCGEDKQVKCWDLEYNKVIRHYHGHLSAVYGLDLHPTIDVLVTCSRDSTARIWDVRTKASVHTLSGHTNAVATVRCQAAEPQIITGSHDTTIRLWDLVAGKTRVTLTNHKKSVRAVVLHPRHYTFASGSPDNIKQWKFPDGSFIQNLSGHNAIINTLTVNSDGVLVSGADNGTMHLWDWRTGYNFQRVHAAVQPGSLDSESGIFACAFDQSESRLLTAEADKTIKVYREDDTATEETHPVSWKPEIIKRKRF

target: T1, Flag-TPIT; assay: affinity purification with mass spectrometry; Flag-TPIT immunoprecipitated on anti-DYKDDDDK affinity beads from transfected HEK-293T cells and from adenovirus-infected primary corticotroph tumor cells; Triton X-100 lysis buffer (150 mM NaCl, 50 mM Tris, 1% Triton X-100, pH 7.5)

binding, binds:
Tripartite motif-containing protein 28 (TRIM28), endogenous (from UniProt Q13263 1-835) (enzyme)
STIP1 Homology and U-Box Containing Protein 1 (STUB1), endogenous, human cells (from UniProt Q9UNE7 1-303) (enzyme)
B1
